Source: patent publication US9238011B2, “Compositions, methods and kits for therapeutic treatment with wet spun microstructures” (Brown University, priority 2012, dated 2016)
At least one structure is not confirmed: it was looked up by name or label, or the drawing left a doubt.

Test system: Human aortic valve interstitial cells (hVICs)
Test: In vitro bioactivity of eluted DXM: cell proliferation assay
Assay type: cell-based
Details: for proliferation of hVICs compared to control cells with PBS vehicle: 10^−7 mol L^−1 DXM, 72 hours; for biological activity (hVIC proliferation) of eluted DXM compared with fresh, unencapsulated drug: eluted from multifilament yarns after 1 day and 56 days, 10^−7 mol L^−1, 72 hours

C[C@@H]1C[C@H]2[C@@H]3CCC4=CC(=O)C=C[C@]4(C)[C@@]3(F)[C@@H](O)C[C@]2(C)[C@@]1(O)C(=O)CO [DXM, Dexamethasone] was tested, and the “proliferation of hVICs compared to control cells with PBS vehicle” value was “significantly reduced rate”, the “proliferation of hVICs compared to control cells with PBS vehicle” value (listed as Dexamethasone) was “inhibits proliferation” and the “biological activity (hVIC proliferation) of eluted DXM compared with fresh, unencapsulated drug” value (listed as DXM eluted from 6-ply multifilament yarns) was “same biological activity”. For the same compound, the “biological activity (hVIC proliferation) of eluted DXM compared with fresh, unencapsulated drug” value (listed as eluted DXM) was “similar” and the “biological activity (hVIC proliferation) of eluted DXM compared with fresh, unencapsulated drug” value (listed as eluted drug) was “preserved until 56-day incubation”.
